# Laboratory results taken from publication PMC11515916.
# By UniProt entry, the sequences of proteins in these tests, tags left out. Where a name states a change or a piece, a line headed by the entry shows the natural chain unless it says otherwise.
# UniProt P84022: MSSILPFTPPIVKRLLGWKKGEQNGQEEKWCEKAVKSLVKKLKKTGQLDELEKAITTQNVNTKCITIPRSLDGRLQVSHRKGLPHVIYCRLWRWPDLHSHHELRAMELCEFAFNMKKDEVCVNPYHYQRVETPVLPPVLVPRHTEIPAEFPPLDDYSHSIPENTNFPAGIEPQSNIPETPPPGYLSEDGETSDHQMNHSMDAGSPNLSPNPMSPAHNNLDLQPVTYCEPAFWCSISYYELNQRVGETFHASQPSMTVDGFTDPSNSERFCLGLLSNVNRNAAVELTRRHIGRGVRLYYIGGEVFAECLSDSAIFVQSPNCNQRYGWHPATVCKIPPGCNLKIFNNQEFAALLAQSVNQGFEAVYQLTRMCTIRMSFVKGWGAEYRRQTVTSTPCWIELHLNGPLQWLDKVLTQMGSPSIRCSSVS
# UniProt P17098: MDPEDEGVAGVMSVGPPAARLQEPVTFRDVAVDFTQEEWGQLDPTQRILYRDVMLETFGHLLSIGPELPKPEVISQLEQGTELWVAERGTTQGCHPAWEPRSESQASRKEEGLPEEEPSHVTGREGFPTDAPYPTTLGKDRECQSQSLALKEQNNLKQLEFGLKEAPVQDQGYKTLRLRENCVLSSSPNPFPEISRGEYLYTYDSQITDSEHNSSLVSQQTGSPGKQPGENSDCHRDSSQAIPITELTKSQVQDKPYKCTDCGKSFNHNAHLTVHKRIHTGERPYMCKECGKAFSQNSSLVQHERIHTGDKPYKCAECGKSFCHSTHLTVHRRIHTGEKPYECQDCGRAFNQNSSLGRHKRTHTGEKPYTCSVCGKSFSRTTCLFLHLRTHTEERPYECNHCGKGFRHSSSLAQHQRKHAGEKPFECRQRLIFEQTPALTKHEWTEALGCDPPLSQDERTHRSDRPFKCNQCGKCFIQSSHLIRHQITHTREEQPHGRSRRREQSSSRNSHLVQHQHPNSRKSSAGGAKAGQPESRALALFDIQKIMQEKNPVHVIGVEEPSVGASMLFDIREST
# Biological target: Smad3 (endogenous) (human (endogenous in MDA-MB-231, MCF-7, T47D)) (UniProt P84022)
# Test: affinity purification with mass spectrometry; MDA-MB-231 nuclear lysates incubated with anti-Smad3 antibodies or normal IgG, protein A/G agarose, washed with NETN buffer, LC-MS/MS; SAINT score ≥ 0.9
row,Molecule,binding
1,ZNF8 (endogenous) (from UniProt P17098 1-575),binds
2,"PSPC1 (protein, UniProt Q8WXF1 1-523) MMLRGNLKQVRIEKNPARLRALESAVGESEPAAAAAMALALAGEPAPPAPAPPEDHPDEEMGFTIDIKSFLKPGEKTYTQRCRLFVGNLPTDITEEDFKRLFERYGEPSEVFINRDRGFGFIRLESRTLAEIAKAELDGTILKSRPLRIRFATHGAALTVKNLSPVVSNELLEQAFSQFGPVEKAVVVVDDRGRATGKGFVEFAAKPPARKALERCGDGAFLLTTTPRPVIVEPMEQFDDEDGLPEKLMQKTQQYHKEREQPPRFAQPGTFEFEYASRWKALDEMEKQQREQVDRNIREAKEKLEAEMEAARHEHQLMLMRQDLMRRQEELRRLEELRNQELQKRKQIQLRHEEEHRRREEEMIRHREQEELRRQQEGFKPNYMENREQEMRMGDMGPRGAINMGDAFSPAPAGNQGPPPMMGMNMNNRATIPGPPMGPGPAMGPEGAANMGTPMMPDNGAVHNDRFPQGPPSQMGSPMGSRTGSETPQAPMSGVGPVSGGPGGFGRGSQGGNFEGPNKRRRY",binds
3,"SKIL (protein, UniProt P12757 1-684) MENLQTNFSLVQGSTKKLNGMGDDGSPPAKKMITDIHANGKTINKVPTVKKEHLDDYGEAPVETDGEHVKRTCTSVPETLHLNPSLKHTLAQFHLSSQSSLGGPAAFSARHSQESMSPTVFLPLPSPQVLPGPLLIPSDSSTELTQTVLEGESISCFQVGGEKRLCLPQVLNSVLREFTLQQINTVCDELYIYCSRCTSDQLHILKVLGILPFNAPSCGLITLTDAQRLCNALLRPRTFPQNGSVLPAKSSLAQLKETGSAFEVEHECLGKCQGLFAPQFYVQPDAPCIQCLECCGMFAPQTFVMHSHRSPDKRTCHWGFESAKWHCYLHVNQKYLGTPEEKKLKIILEEMKEKFSMRSGKRNQSKTDAPSGMELQSWYPVIKQEGDHVSQTHSFLHPSYYLYMCDKVVAPNVSLTSAVSQSKELTKTEASKSISRQSEKAHSSGKLQKTVSYPDVSLEEQEKMDLKTSRELCSRLDASISNNSTSKRKSESATCNLVRDINKVGIGLVAAASSPLLVKDVICEDDKGKIMEEVMRTYLKQQEKLNLILQKKQQLQMEVKMLSSSKSMKELTEEQQNLQKELESLQNEHAQRMEEFYVEQKDLEKKLEQIMKQKCTCDSNLEKDKEAEYAGQLAELRQRLDHAEADRQELQDELRQEREARQKLEMMIKELKLQILKSSKTAKE",binds

# Results are given in words; binding and its absence hold for the method and conditions named. Binding seen in cells or lysates may run through a third protein. These calls come from enrichment with a bait or labelling near it, and not all partners need be listed.
